{"sequences": {"note": "Protein sequences, listed by entry. Tags and fused reporters are not part of them.", "UniProt Q8NER1, whole entry, looked up": "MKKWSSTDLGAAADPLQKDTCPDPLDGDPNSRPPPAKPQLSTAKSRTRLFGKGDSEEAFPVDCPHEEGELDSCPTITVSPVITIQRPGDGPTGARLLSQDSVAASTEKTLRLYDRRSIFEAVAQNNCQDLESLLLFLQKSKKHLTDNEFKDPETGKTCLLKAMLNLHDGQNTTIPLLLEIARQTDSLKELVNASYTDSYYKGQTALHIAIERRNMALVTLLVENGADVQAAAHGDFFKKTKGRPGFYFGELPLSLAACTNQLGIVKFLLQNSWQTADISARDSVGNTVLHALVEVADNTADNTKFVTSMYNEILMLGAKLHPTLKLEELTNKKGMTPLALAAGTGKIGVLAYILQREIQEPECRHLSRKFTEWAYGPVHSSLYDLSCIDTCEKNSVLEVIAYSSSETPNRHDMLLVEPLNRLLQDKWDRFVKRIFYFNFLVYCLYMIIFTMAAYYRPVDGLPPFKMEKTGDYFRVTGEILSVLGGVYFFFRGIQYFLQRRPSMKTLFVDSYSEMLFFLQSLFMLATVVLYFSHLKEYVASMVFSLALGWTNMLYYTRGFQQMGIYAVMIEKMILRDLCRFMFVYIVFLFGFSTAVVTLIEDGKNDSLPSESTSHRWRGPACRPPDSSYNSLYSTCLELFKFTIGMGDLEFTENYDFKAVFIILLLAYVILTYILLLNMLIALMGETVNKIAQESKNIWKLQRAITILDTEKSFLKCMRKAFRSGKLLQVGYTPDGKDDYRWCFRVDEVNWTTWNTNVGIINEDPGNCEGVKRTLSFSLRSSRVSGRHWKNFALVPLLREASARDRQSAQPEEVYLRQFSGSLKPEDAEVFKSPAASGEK"}, "source": "PubChem BioAssay AID623959", "about": "(National Center for Advancing Translational Sciences (NCATS), 2012)", "note": "Fewer than 10 of roughly 1,400 compounds were called active. Roughly 8% stayed inconclusive and do not appear here. The call rests on the fitted dose curve; in most records, active means well fitted curve in the direction sought with a large enough effect; inconclusive means small, poorly fitted or top-dose-only effect, or another doubt; inactive means no such curve, though single readings can be large or run the other way. The list shows a part of the results. Potency means the concentration at half of the fitted maximal effect.", "data": [{"molecular_target": "Transient receptor potential cation channel subfamily V member 1 (Homo sapiens) (UniProt Q8NER1)", "test": "qHTS Assay for Compounds that Act as Potentiators of the Vanilloid Receptor 1: Hit Validation; on activity change, positive = potentiation: % of control where 0% means no effect", "conditions": "TRPV1-expressing cells, Fluo-8 calcium influx, capsaicin EC20; series mostly up to 42.1 µM; activity change, positive = potentiation: at the top concentration", "how_it_was_run": "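Calcium influx via Fluo-8 fluorescence (480/520 nm) on FDSS: 10 s baseline, 3 min compound read, 2 min read after EC20 capsaicin. TRPV1-expressing cells plated 2000/well, grown overnight at 35.5 °C.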", "values": [{"smiles": "CCOC(=O)N1CCN(C(=O)C2CC(c3cc(OC)ccc3OC)=NO2)CC1", "note": "(centres undefined)", "activity change, positive = potentiation": "inactive: 5.66%"}, {"smiles": "C=CCNc1oc(-c2ccc(OC)cc2)nc1C#N", "activity change, positive = potentiation": "inactive: 13.8%"}, {"smiles": "CN(C(=O)CSc1nc(C2CC2)nc2ccccc12)c1nc(-c2ccccc2)cs1", "activity change, positive = potentiation": "inactive: -5.26%"}, {"smiles": "COc1ccc(CC(=O)Nc2oc(-c3ccccc3)c(-c3ccccc3)c2C#N)cc1OC", "activity change, positive = potentiation": "inactive: -38.8%"}, {"smiles": "COc1ccccc1N1CCN(C(=O)c2cc(C(C)(C)C)oc2C)CC1", "activity change, positive = potentiation": "inactive: -23.9%"}, {"smiles": "COc1ccc(NC(=O)CSc2nnc(CNC(=O)c3ccco3)o2)cc1", "activity change, positive = potentiation": "inactive: -25%"}, {"smiles": "COc1ccc(C(=O)N/N=C/c2ccc(OC)c(CSc3ccccn3)c2)cc1", "activity change, positive = potentiation": "inactive: 6.12%"}, {"smiles": "Cn1c(=O)c2c(nc(N3CCOCC3)n2CCc2ccccc2)n(C)c1=O", "activity change, positive = potentiation": "inactive: -5.97%"}, {"smiles": "O=C(Nc1ccccc1)N1CCCN(c2nccc(C(F)(F)F)n2)CC1", "activity change, positive = potentiation": "inactive: -36%"}, {"smiles": "N#Cc1ccsc1NC(=O)C1CCN(C(=O)c2ccc(Cl)cc2)CC1", "activity change, positive = potentiation": "inactive: 4.76%"}, {"smiles": "Cn1c(-c2ccc(F)cc2)cc2onc(-c3ccccc3Cl)c2c1=O", "activity change, positive = potentiation": "inactive: -6.62%"}, {"smiles": "O=c1[nH]c(SCc2cccc(F)c2)nc2ccccc12", "activity change, positive = potentiation": "inactive: 1.6%"}, {"smiles": "Cc1ccc(C(C)C)c(OCCSc2nc3ccccc3n2CC(=O)O)c1", "activity change, positive = potentiation": "inactive: -4.84%"}, {"smiles": "O=C(Nc1ccccc1)Nc1nnc(SCc2ccc(Cl)cc2)s1", "activity change, positive = potentiation": "inactive: 13.8%"}, {"smiles": "Cc1cccc(NC(=O)CS(=O)(=O)c2cn(C)c3ccccc23)c1", "activity change, positive = potentiation": "inactive: -6.57%"}, {"smiles": "CCC1=C2CC[C@H]3C(=O)N(C)C(=O)[C@H]3[C@H]2[C@@]2(Cc3ccccc3)C(=NCCOC)OC(=O)N2C1=O", "activity change, positive = potentiation": "inactive: -11.5%"}, {"smiles": "O=S(=O)(c1ccccc1)N1CCN=C1SCc1ccccc1Cl", "activity change, positive = potentiation": "inactive: -0.824%"}, {"smiles": "O=[N+]([O-])c1ccc(O)c(/C=N/Nc2ccccc2[N+](=O)[O-])c1", "activity change, positive = potentiation": "inactive: 8.79%"}, {"smiles": "COc1ccc(CNC(=O)C2CC(c3ccc(C(F)(F)F)cc3)=NO2)cc1", "note": "(centres undefined)", "activity change, positive = potentiation": "inactive: -6.96%"}, {"smiles": "Cn1c(SC(C(=O)Nc2ccc(F)cc2)c2ccccc2)nc2ccccc21", "note": "(centres undefined)", "activity change, positive = potentiation": "inactive: -37.9%"}, {"smiles": "COc1cc(N2Cc3ccccc3C2)ccc1C=O", "activity change, positive = potentiation": "inactive: -0.201%"}, {"smiles": "O=C(Nc1ccc(C(=O)N2CCC(O)(c3ccc(Cl)c(C(F)(F)F)c3)CC2)cc1)c1ccc(Br)o1", "activity change, positive = potentiation": "inactive: 4.02%"}, {"smiles": "CCC(C(=O)OC)n1cnc2c(nnn2-c2cccc(OC)c2)c1=O", "note": "(centres undefined)", "activity change, positive = potentiation": "inactive: -7.38%"}, {"smiles": "N#Cc1cnn(-c2ccccc2)c1N", "activity change, positive = potentiation": "inactive: 1.83%"}, {"smiles": "O=[N+]([O-])c1ccccc1Nc1cccnc1", "activity change, positive = potentiation": "inactive: -6.87%"}, {"smiles": "Cc1cc(C)cc(N(C(=O)CNS(=O)(=O)c2ccccc2)C(C(=O)NCc2ccccc2)c2ccc(C)o2)c1", "note": "(centres undefined)", "activity change, positive = potentiation": "inactive: -7.44%"}, {"smiles": "COc1cc2cc(C)c3nnc(SCC(=O)Nc4cc(C)on4)n3c2cc1OC", "activity change, positive = potentiation": "inactive: -4.26%"}, {"smiles": "COc1ccc(C2/C=C\\CN(C(=O)C3CCCC3)CC(=O)N2Cc2ccc(F)cc2)cc1", "note": "(centres undefined)", "activity change, positive = potentiation": "inactive: -4.51%"}, {"smiles": "COc1ccccc1N1CCN(C(=O)Cc2c(C(=O)O)[nH]c3ccc(Cl)cc23)CC1", "activity change, positive = potentiation": "inactive: -5.3%"}, {"smiles": "CSCCCN1CC[C@@H](N2CCN(c3ccccc3F)CC2)[C@H](O)C1", "activity change, positive = potentiation": "inactive: 12.5%"}, {"smiles": "Cn1cnnc1SCC(=O)Nc1nc(-c2ccccc2)cs1", "activity change, positive = potentiation": "inactive: -1.61%"}, {"smiles": "CCN1C(=O)[C@@H]2[C@H](C1=O)[C@@H]1C(=O)Nc3ccccc3C(=O)N1[C@@H]2c1ccc(Br)cc1", "activity change, positive = potentiation": "inactive: 2.73%"}, {"smiles": "O=C(COC(=O)C1=COCCO1)NC1CCCCC1", "activity change, positive = potentiation": "inactive: -2.77%"}, {"smiles": "COc1ccc(-c2noc(C3CCCN(C(=O)c4ccc(F)cc4)C3)n2)cc1", "note": "(centres undefined)", "activity change, positive = potentiation": "inactive: -1.43%"}, {"smiles": "CC(=O)Nc1ccc(/C=C(\\C#N)C(N)=O)cc1", "activity change, positive = potentiation": "inactive: -4.7%"}, {"smiles": "Cc1ccc(C(=O)NCCc2ccccc2)cc1", "activity change, positive = potentiation": "inactive: -34.3%"}, {"smiles": "Oc1cccc(/C=N/Nc2cc(N3CCOCC3)nc(N3CCOCC3)n2)c1", "activity change, positive = potentiation": "inactive: -33.3%"}, {"smiles": "CC(C)(C)c1cc(Cl)ccc1OCCn1ccnc1", "activity change, positive = potentiation": "inactive: -37.7%"}, {"smiles": "Cc1ccc(NC(=O)c2ccc3c(c2)OCCO3)cc1C", "activity change, positive = potentiation": "inactive: -37.7%"}, {"smiles": "O=c1cc(-c2ccccc2)[nH]c2ccc(F)cc12", "activity change, positive = potentiation": "inactive: -6.02%"}, {"smiles": "COc1cc(C(O)c2nc3ccccc3n2C(C)C)cc(OC)c1OC", "note": "(centres undefined)", "activity change, positive = potentiation": "inactive: -3.95%"}, {"smiles": "CCCC1(C(=O)OCC)NC(c2ccc(N(C)C)cc2)C2C(=O)N(c3ccc(F)cc3)C(=O)C21", "note": "(centres undefined)", "activity change, positive = potentiation": "inactive: 4.32%"}, {"smiles": "Cc1oc(-c2cccs2)nc1CS(=O)CC(=O)NCCc1ccccc1", "note": "(centres undefined)", "activity change, positive = potentiation": "inactive: -3.43%"}, {"smiles": "CCOc1ccc(S(=O)(=O)N2CCCCC2)cc1NC(=O)CN1C(=O)NC(C)(c2ccc(C)cc2)C1=O", "note": "(centres undefined)", "activity change, positive = potentiation": "inactive: -6.38%"}, {"smiles": "CCOC(=O)C(C(=O)OCC)c1cc(Br)c2noc3c2c1C(=O)c1ccccc1-3", "Potency": "active: 3.6 µM"}, {"smiles": "O=C(Nc1ccc(N2CCCCCC2)cc1)c1cccc(S(=O)(=O)N2CCOCC2)c1", "activity change, positive = potentiation": "inactive: -37.4%"}, {"smiles": "CC(C)c1ccc(CNNC(=O)c2ccccc2)cc1", "activity change, positive = potentiation": "inactive: -36.7%"}, {"smiles": "Cc1ccc(C2=NS(=O)(=O)N(C)C(C(=O)NCc3cccs3)=C2)cc1", "activity change, positive = potentiation": "inactive: -38.9%"}, {"smiles": "O=C(NNC(=O)c1cccc(O)c1)Nc1ccc([N+](=O)[O-])cc1", "activity change, positive = potentiation": "inactive: 3.43%"}, {"smiles": "O=C(Nc1ccc(Cl)cc1)c1csc(-c2ccccc2)n1", "activity change, positive = potentiation": "inactive: -37.6%"}, {"smiles": "Cn1nc(C(C)(C)C)cc1C(=O)NCc1ccc(N2CCCC2=O)cc1", "activity change, positive = potentiation": "inactive: -1.47%"}, {"smiles": "Cc1cccnc1NC(N)=S", "activity change, positive = potentiation": "inactive: -7.17%"}, {"smiles": "O=C(CCNS(=O)(=O)c1ccc(Br)s1)NCc1ccccc1Cl", "activity change, positive = potentiation": "inactive: -5.73%"}, {"smiles": "O=C(CN1C(=O)C2CCCN2c2ncc(Cl)cc21)NCc1ccc2c(c1)OCO2", "note": "(centres undefined)", "activity change, positive = potentiation": "inactive: -22.2%"}]}]}
